Reference: paper doi:10.1101/2021.08.09.455688
These are yes or no findings as the source states them, for the method shown. Binding seen in cells or lysates may run through a third protein. Some entries that bind do so weakly or less than the wild type. Where a sequence is shown, tags or fusion partners need not be part of it.

Chains of the proteins cited; added tags and fusions are not shown.
UniProt P04147: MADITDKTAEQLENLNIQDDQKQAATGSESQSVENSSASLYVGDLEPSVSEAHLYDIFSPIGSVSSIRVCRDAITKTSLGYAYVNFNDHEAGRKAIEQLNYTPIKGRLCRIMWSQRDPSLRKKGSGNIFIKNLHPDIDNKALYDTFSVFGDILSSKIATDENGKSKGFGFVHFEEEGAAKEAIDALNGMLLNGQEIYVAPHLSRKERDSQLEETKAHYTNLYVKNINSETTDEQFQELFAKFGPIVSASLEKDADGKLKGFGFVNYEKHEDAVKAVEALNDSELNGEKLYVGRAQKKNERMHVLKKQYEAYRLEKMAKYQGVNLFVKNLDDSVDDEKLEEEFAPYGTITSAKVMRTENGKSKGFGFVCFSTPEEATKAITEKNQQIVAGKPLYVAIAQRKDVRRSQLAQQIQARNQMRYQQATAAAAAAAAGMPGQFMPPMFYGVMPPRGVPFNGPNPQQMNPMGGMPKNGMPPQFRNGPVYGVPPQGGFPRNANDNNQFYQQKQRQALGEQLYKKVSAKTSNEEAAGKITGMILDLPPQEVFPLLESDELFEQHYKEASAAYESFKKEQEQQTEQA

Assays:
[1] = molecular target: T1, epitope-tagged N-terminal Sro9(1-151) (budding yeast) (UniProt P25567); assay: co-IP
T1 sequence: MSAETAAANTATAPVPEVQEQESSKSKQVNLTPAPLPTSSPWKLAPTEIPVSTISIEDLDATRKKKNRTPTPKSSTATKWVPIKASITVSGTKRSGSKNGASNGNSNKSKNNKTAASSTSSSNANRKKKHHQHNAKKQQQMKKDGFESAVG

[2] = molecular target: T2, full-length Sro9 protein (epitope-tagged) (budding yeast) (UniProt P25567); assay: co-IP
T2 sequence: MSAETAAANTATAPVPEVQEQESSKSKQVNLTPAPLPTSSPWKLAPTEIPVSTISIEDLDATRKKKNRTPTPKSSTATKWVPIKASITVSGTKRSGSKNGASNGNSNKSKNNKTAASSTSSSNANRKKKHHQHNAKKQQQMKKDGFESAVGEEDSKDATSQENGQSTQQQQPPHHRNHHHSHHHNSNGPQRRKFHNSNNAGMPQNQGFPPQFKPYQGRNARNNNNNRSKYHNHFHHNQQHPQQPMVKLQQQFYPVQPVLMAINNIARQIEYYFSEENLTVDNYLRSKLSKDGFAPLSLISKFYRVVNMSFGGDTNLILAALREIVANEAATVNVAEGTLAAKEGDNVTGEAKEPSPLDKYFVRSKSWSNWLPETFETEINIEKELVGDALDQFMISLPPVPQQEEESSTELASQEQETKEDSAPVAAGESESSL

- binding [1]: binds
- binding [2]: binds
Substance: poly(A)-binding protein Pab1 (from UniProt P04147 1-577)
